Test results from US20080221144A1, “Controlled Release Formulations” (Innovative Drug Delivery Systems, Inc., priority 2004, published 2008).

Assay: clinical
Details: both, human, in vivo, 10 mg; for AUC: Morphine AUC, morphine in plasma, single dose, healthy volunteers, naltrexone block, formulation per label

SMILES: CN1CC[C@]23c4c5ccc(O)c4O[C@H]2[C@@H](O)C=C[C@H]3[C@H]1C5.O=S(=O)(O)O [10 mg IV + IN Placebo, morphine sulphate]
- Cmax: 70 ± 20 ng/mL
- Tmax: 30 min
- AUC (Mean ± SD (first AUC row)): 70 ± 23 ng·h/mL
- AUC (Mean ± SD): 75 ± 22 ng·h/mL
